# Measurements taken from PubChem BioAssay (Tox21).
# Protein sequences, listed by entry. Tags and fused reporters are not part of them. Lines headed by an entry give the natural chain unless they say otherwise; changes in a name come on top.
# UniProt P28223, whole entry, looked up: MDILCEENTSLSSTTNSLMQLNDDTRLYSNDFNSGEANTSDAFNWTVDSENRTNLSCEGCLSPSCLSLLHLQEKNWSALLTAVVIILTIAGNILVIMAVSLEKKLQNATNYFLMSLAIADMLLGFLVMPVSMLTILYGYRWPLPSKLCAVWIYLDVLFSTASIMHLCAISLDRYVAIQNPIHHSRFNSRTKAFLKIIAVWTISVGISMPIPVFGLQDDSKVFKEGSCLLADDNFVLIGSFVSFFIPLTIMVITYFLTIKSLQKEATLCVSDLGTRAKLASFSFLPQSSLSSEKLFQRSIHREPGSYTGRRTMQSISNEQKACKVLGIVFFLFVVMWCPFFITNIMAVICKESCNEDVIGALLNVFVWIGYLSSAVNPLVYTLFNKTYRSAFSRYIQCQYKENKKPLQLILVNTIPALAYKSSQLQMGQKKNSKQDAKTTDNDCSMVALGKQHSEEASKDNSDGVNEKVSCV
# UniProt P11229: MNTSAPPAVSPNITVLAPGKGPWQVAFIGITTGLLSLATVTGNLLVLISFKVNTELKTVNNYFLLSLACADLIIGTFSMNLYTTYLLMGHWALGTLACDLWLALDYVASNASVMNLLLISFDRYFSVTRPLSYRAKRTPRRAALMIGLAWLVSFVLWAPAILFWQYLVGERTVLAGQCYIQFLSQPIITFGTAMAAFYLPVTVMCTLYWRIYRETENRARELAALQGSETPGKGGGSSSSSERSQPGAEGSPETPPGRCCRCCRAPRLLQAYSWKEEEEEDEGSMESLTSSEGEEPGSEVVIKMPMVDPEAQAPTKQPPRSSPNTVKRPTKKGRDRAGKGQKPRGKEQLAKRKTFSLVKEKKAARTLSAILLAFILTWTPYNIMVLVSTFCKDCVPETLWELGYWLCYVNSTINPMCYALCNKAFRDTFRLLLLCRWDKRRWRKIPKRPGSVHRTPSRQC
# UniProt P14416, whole entry, looked up: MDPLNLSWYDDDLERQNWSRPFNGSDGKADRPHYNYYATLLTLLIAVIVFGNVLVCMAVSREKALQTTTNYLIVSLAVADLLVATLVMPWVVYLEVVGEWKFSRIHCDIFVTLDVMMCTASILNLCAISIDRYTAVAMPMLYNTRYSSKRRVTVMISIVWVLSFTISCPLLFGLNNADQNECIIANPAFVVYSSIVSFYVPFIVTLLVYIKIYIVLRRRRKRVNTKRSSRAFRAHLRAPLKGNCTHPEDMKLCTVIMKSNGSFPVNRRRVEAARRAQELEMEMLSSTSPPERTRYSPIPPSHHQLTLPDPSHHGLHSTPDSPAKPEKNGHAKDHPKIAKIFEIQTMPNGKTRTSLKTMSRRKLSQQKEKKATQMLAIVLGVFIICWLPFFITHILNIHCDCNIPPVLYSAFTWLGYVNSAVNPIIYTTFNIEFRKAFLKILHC
# “And” between values parts separate entries of the source, which are not always exact repeats. Identical values can stand only once. This list was built around the results that the source calls inconclusive (neither active nor inactive); the mix of calls is not that of the screen. For part of these data: Where the call is inconclusive, the potency comes from a doubtful curve fit. The source holds several records for some structures; these can differ, active in one and inactive in another. The source made the active and inactive calls. Unless noted, calls follow the shape of the full dose curve.
# Assays:
# [1] = Nuclear factor erythroid 2-related factor 2/antioxidant responsive element (Nrf2/ARE) small molecule agonists: luciferase reporter gene qHTS assay in human keratinocytes (AID 1919969); also: nearly all actives have a fitted effect of over 35% in size; also: potency is read from the fitted curve at half-maximal effect
# [2] = p53 small molecule agonists, cell-based qHTS assay with human liver microsomes (AID 1963577); conditions: HCT-116 p53RE-bla with human liver microsomes, ratio, 16 h; activation: at 66 µM (top of the series) unless noted; also: potency is read from the fitted curve at half-maximal effect; as to activation: % is scaled to controls: 0 for no effect and ±100 for the full control effect
# Procedure, shortened: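 p53RE-bla cells, 4,000/well, compound added after 5 h, with human liver microsomes 0.5 mg/mL and NADPH 0.5 mg/mL final; 16 h at 37 C, then LiveBLAzer 2 h RT, fluorescence.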
# [3] = p53 small molecule agonists, cell-based qHTS assay with human liver microsomes: qHTS cell viability counter screen (AID 1963579); also: potency is read from the fitted curve at half-maximal effect; nearly all actives have a fitted effect of over 45% in size
# Procedure, shortened: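 p53RE-bla cells, 4,000/well, dosed 5 hours after plating, with human liver microsomes (0.5 mg/mL final) plus NADPH (0.5 mg/mL final), 16 hours at 37 C. Viability read as CellTiter-Glo luminescence after 30 min at room temperature.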
# [4] = p53 small molecule agonists, cell-based qHTS assay with rat liver microsomes: qHTS cell viability counter screen (AID 1963580); also: potency is read from the fitted curve at half-maximal effect; nearly all actives have a fitted effect of over 45% in size
# Procedure, shortened: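 After the beta-lactamase ratio was read, CellTiter-Glo was added to the same wells and luminescence measured at 30 min; cells had been treated 16 h at 37 C with compounds, rat liver microsomes and NADPH (0.5 mg/mL final each).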
# [5] = molecular target: 5-hydroxytryptamine receptor 2A (Homo sapiens) (UniProt P28223); experiment: 5-hydroxytryptamine receptor 2A (HTR2A) small molecule agonists, cell-based qHTS assay (AID 1963587); conditions: HTR2A-CHO cells, calcium flux fluorescence, agonist mode; activation: at 76.8 µM (top of the series); also: potency is read from the fitted curve at half-maximal effect; nearly all actives have a fitted effect of over 30% in size
# Procedure, shortened: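 CHO cells stably expressing human HTR2A, plated 18 h, loaded with calcium dye 1 h at 37 C. Agonist mode: compounds added and intracellular calcium fluorescence recorded kinetically for 2 min at 1 sec intervals.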
# [6] = molecular target: Muscarinic acetylcholine receptor M1 (Homo sapiens) (UniProt P11229); experiment: Cholinergic receptor muscarinic 1 (CHRM1) small molecule antagonists, cell-based qHTS assay (AID 1963588); also: potency is read from the fitted curve at half-maximal effect; nearly all actives have a fitted effect of over 40% in size
# Procedure, shortened: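 Compounds were tested at 15 concentrations in three independent runs. Dye-loaded CHRM1-CHO cells were exposed 5 min at room temperature before stimulation by acetylcholine added at 50nM. Intracellular calcium was read kinetically on FDSS for 3 min.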
# [7] = cAMP Responsive Elements (CRE) small molecule antagonists, cell-based qHTS assay (AID 1963591; active = well fitted inhibition curve with a large enough effect in the signal ratio in the repeat runs, not every such curve was filed as active; inconclusive = weak or mixed curves, or effect the other way; the % refers to the signal ratio; also: potency is read from the fitted curve at half-maximal effect); conditions: CRE-bla HEK293T, beta-lactamase FRET ratio; activity change, negative = inhibition: at 92.4 µM (top of the series) unless noted
# Procedure, shortened: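 Fluorescence intensity from cleaved LiveBLAzer B/G substrate (2 h, room temperature) quantified CRE-bla activity in HEK 293T cells exposed 3 h to compound with 0.25 uM final NKH477.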
# [8] = molecular target: Beta-2 adrenergic receptor (Homo sapiens) (UniProt P07550); experiment: Adrenergic beta2 receptor (ADRB2) small molecule antagonists, cell-based qHTS assay (AID 1963592); conditions: CHO-ADRB2 cells, isoproterenol-stimulated cAMP HTRF ratio, 0.5 h; activity change, negative = inhibition: at 92.4 µM (top of the series) unless noted; also: nearly all actives have a fitted effect of over 50% in size; also: potency is read from the fitted curve at half-maximal effect; as to activity change, negative = inhibition: % is scaled to controls: 0 for no effect and ±100 for the full control effect
# Procedure, shortened: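 Assay format: CHO-ADRB2 cells, 18-20hr seeding at 37C/5% CO2, then compound plus 1nM isoproterenol agonist mix for 0.5hr RT. Homogeneous time-resolved fluorescence cAMP detection after 1hr, expressed as 665/615 nm ratio.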
# [9] = molecular target: Beta-2 adrenergic receptor (Homo sapiens) (UniProt P07550); experiment: Adrenergic beta2 receptor (ADRB2) small molecule agonists, cell-based qHTS assay (AID 1963593); conditions: CHO-ADRB2 cells, cAMP HTRF, 30 min; activation: at 92.4 µM (top of the series) unless noted; also: potency is read from the fitted curve at half-maximal effect;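 as to activation: CHO cells stably overexpressing human ADRB2; % is scaled to controls: 0 for no effect and ±100 for the full control effect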
# Procedure, shortened: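 CHO cells stably over-expressing ADRB2 were plated overnight at 37C, then dosed with compounds plus a stimulation mix containing 100uM IBMX and 25uM Ro-20-1724 for 0.5hr at room temperature. cAMP was measured by HTRF competition, 1hr.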
# [10] = molecular target: D(2) dopamine receptor (Homo sapiens) (UniProt P14416); experiment: Dopamine D2 receptor (DRD2) small molecule agonists, cell-based qHTS assay (AID 1963594); conditions: HEK293-DRD2 cAMP HTRF, agonist mode, 30 min; activation: at 92.4 µM (top of the series) unless noted; also: potency is read from the fitted curve at half-maximal effect; nearly all actives have a fitted effect of over 35% in size
# Procedure, shortened: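 HEK293 cells stably expressing human DRD2, pre-treated with PDE inhibitor Ro20-1724 (0.1 mM final) and compound 10 min at room temperature, then stimulated with NKH477 (200nM […]) for 30 min. cAMP read by HTRF (665/620 nm).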
# [11] = p53 small molecule agonists, cell-based qHTS assay: qHTS cell viability counter screen (AID 1963581); also: nearly all actives have a fitted effect of over 45% in size; also: potency is read from the fitted curve at half-maximal effect
# Procedure, shortened: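 Multiplexed with the reporter read, a CellTiter-Glo step (30 min, room temperature) gauges ATP-based viability of HCT-116 p53RE-bla cells after 16 h compound incubation at 37 C.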
# [12] = molecular target: 5-hydroxytryptamine receptor 2A (Homo sapiens) (UniProt P28223); experiment: 5-hydroxytryptamine receptor 2A (HTR2A) small molecule antagonists, cell-based qHTS assay (AID 1963586); also: potency is read from the fitted curve at half-maximal effect; nearly all actives have a fitted effect of over 45% in size
# Procedure, shortened: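 CHO cells stably expressing human HTR2A were plated for 18 h at 37 C, then loaded with calcium dye for 1 h. Compounds were preincubated 5 min at room temperature before DOI (4 nM solution) was added. Kinetic fluorescence was read for 3 min.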
# [13] = molecular target: D(2) dopamine receptor (Homo sapiens) (UniProt P14416); experiment: Dopamine D2 receptor (DRD2) small molecule antagonists, cell-based qHTS assay (AID 1963595; active = well fitted inhibition curve with a large enough effect in the signal ratio in the repeat runs, with a control signal flat; inconclusive = weak or mixed curves, or effect the other way; the % refers to the signal ratio; also: % is scaled to controls: 0 for no effect and ±100 for the full control effect); conditions: HEK293-DRD2 cAMP HTRF antagonist mode; activity change, negative = inhibition: at 92.4 µM (top of the series) unless noted
# Procedure, shortened: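 Stable D2 receptor HEK293 line, 24 h after seeding. Compound preincubated 10 min, then quinpirole (12 nM) with forskolin analogue NKH477 (200 nM), 30 min, room temperature. Detection by time-resolved FRET of cAMP.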
# [14] = p53 small molecule agonists, cell-based qHTS assay with rat liver microsomes (AID 1963578); conditions: HCT-116 p53RE-bla, beta-lactamase ratio, 16 h; activation: at 66 µM (top of the series) unless noted; also: potency is read from the fitted curve at half-maximal effect
# Procedure, shortened: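 p53RE-bla cells, 4,000/well, pre-incubated 5 h, then given compounds plus rat liver microsomes (0.5 mg/mL final) and NADPH (0.5 mg/mL final). Incubation 16 h at 37 C; beta-lactamase reporter read by LiveBLAzer fluorescence after 2 h at room temperature.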
# [15] = p53 small molecule agonists, cell-based qHTS assay (AID 1963582; active = well fitted activation curve with a large enough effect in the signal ratio in the repeat runs, not every such curve was filed as active; inconclusive = weak or mixed curves; the % refers to the signal ratio; also: potency is read from the fitted curve at half-maximal effect); conditions: HCT-116 p53RE-bla reporter, beta-lactamase FRET ratio, 16 h; activation: at 66 µM (top of the series) unless noted
# Procedure, shortened: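 Beta-lactamase reporter cells (p53RE-bla) treated with compounds for 16 h at 37 C; FRET substrate, 2 h, room temperature; fluorescence intensity.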
# [16] = cAMP Responsive Elements (CRE) small molecule agonists, cell-based qHTS assay (AID 1963590); conditions: CRE-bla HEK293T, beta-lactamase FRET ratio, 3 h; activation: at 92.4 µM (top of the series) unless noted; also: potency is read from the fitted curve at half-maximal effect
# Procedure, shortened: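 Quantitative HTS for CRE agonists: HEK 293T CRE-bla cells, overnight plating, 3 h compound incubation at 37 C/5% CO2, then 2 h room-temperature LiveBLAzer B/G FRET substrate loading.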
compound,measurement,setting,value
CC(C)(c1ccccc1)c1ccc(O)c(C(C)(C)c2ccccc2)c1,Potency,[1],active: 7.7 µM
same,Potency,[2],"inconclusive: 51.3 µM [rising, single point]"
same,activation,[2],inconclusive: -12.2%
same,Potency,[3],active: 40.4 µM
same,Potency,[4],"inconclusive: 50.9 µM [cytotoxic, single point] and inconclusive: 45.8 µM [cytotoxic, single point]"
same,Potency,[5],"inconclusive: 49 µM [activator, partial curve, poor fit]"
same,Potency,[6],"inconclusive: 37.5 µM [inhibitor, single point]"
same,Potency,[7],inconclusive: 15.2 µM and inconclusive: 27.3 µM
same,Potency,[8],"inconclusive: 68 µM [inhibitor, single point]"
same,"activity change, negative = inhibition",[8],inconclusive: -32%
same,Potency,[9],"inconclusive: 68 µM [inhibitor, partial curve]"
same,activation,[9],inconclusive: 53.3%
same,Potency,[10],"inconclusive: 6.11 µM [rising, partial curve, poor fit]"
CCOCCOC(C)=O,Potency,[1],inconclusive: 68.6 µM [activator]
same,Potency,[2],"inconclusive: 20.4 µM [fluorescent, full curve]"
same,Potency,[3],"inconclusive: 0.102 µM [rising, partial curve, poor fit]"
same,Potency,[4],"inconclusive: 1.82 µM [cytotoxic, single point]"
same,Potency,[11],"inconclusive: 51.3 µM [cytotoxic, single point]"
same,Potency,[12],"inconclusive: 0.0059 µM [inhibitor, full curve]"
same,Potency,[7],active: 12.8 µM
same,Potency,[8],"inconclusive: 0.0022 µM [activator, full curve, poor fit]"
same,Potency,[9],"inconclusive: 17.2 µM [inhibitor, single point]"
same,"activity change, negative = inhibition",[13],inconclusive: 1.94%
CCCSP(=O)(OCC)Oc1ccc(Br)cc1Cl (centres undefined),Potency,[1],inactive
same,Potency,[2],"inconclusive: 0.443 µM [fluorescent, full curve]"
same,Potency,[14],"inconclusive: 0.626 µM [fluorescent, full curve]"
same,Potency,[11],inactive
same,Potency,[15],"inconclusive: 24.9 µM [rising, single point]"
same,Potency,[7],inactive
same,activation,[9],inconclusive: 1.11% [at 42.5 µM]
CNC(=O)O/N=C(\SC)C(=O)N(C)C,Potency,[1],"inconclusive: 74.8 µM [activator, single point]"
same,Potency,[2],"inconclusive: 996 nM [fluorescent] and inconclusive: 407 nM [fluorescent, full curve]"
same,Potency,[14],"inconclusive: 2.81 µM [fluorescent, full curve] and inconclusive: 1.82 µM [fluorescent, full curve]"
same,Potency,[9],inactive
CC(c1ccc(O)cc1)(c1ccc(O)cc1)c1ccc(O)cc1,Potency,[1],"inconclusive: 21.7 µM [activator, single point]"
same,Potency,[2],inconclusive: 51.3 µM [single point]
same,Potency,[11],"inconclusive: 20.4 µM [cytotoxic, partial curve, poor fit]"
same,Potency,[15],"inconclusive: 14.5 µM [rising, partial curve]"
same,Potency,[12],active: 23.7 µM
same,Potency,[5],active: 49 µM
same,Potency,[16],"inconclusive: 48.6 µM [rising, partial curve]"
COP(=S)(OC)Oc1cc(Cl)c(I)cc1Cl,Potency,[1],"inconclusive: 68.6 µM [activator, single point]"
same,Potency,[2],"inconclusive: 0.129 µM [fluorescent, full curve]"
same,Potency,[14],"inconclusive: 2.04 µM [fluorescent, full curve]"
same,Potency,[15],"inconclusive: 18.2 µM [fluorescent, partial curve, poor fit]"
same,Potency,[9],inactive
CCOC(=O)C(SP(=S)(OC)OC)c1ccccc1 (centres undefined),Potency,[1],"inconclusive: 68.6 µM [activator, single point]"
same,Potency,[2],inconclusive: 18.2 µM [activator]
same,Potency,[14],inconclusive: 4.58 µM [fluorescent]
same,Potency,[8],inactive
same,Potency,[9],inactive
CCCCCOC(=O)c1ccccc1C(=O)OCCCCC,Potency,[1],"inconclusive: 27.2 µM [activator, single point] and inconclusive: 68.6 µM [activator, single point]"
same,Potency,[2],inactive
same,Potency,[11],"inconclusive: 57.6 µM [rising, partial curve, poor fit]"
